Data from article PMC7862700.
Only a part is listed here, and it is no random draw. For part of these data: At the low end of the ranking, values are background and their order means little.

Amino acid sequences for entries named in this document (tags omitted). A change or cut given only in a name is not applied to a line headed by its entry.
UniProt Q01892: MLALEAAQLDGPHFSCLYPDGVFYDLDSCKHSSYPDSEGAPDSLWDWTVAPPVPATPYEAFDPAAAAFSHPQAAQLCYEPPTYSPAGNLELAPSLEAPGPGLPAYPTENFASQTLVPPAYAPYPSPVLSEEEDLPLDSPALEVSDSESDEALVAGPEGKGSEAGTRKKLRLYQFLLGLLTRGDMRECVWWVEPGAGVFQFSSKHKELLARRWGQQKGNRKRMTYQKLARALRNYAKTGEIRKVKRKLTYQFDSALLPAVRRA
UniProt P41161: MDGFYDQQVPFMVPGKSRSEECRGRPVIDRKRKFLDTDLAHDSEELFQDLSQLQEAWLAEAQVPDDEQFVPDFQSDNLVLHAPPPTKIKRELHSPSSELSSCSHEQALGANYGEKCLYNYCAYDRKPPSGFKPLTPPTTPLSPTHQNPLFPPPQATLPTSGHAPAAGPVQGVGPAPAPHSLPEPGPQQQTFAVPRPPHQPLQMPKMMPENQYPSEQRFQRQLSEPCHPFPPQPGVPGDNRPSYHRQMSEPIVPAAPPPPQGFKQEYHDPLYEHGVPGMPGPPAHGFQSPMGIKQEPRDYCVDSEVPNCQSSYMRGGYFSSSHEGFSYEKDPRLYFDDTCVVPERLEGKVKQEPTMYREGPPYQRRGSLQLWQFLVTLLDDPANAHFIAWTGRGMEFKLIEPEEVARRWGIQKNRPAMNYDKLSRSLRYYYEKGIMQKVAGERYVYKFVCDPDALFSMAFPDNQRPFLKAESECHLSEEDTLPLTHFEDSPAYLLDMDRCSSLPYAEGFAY
UniProt Q99607: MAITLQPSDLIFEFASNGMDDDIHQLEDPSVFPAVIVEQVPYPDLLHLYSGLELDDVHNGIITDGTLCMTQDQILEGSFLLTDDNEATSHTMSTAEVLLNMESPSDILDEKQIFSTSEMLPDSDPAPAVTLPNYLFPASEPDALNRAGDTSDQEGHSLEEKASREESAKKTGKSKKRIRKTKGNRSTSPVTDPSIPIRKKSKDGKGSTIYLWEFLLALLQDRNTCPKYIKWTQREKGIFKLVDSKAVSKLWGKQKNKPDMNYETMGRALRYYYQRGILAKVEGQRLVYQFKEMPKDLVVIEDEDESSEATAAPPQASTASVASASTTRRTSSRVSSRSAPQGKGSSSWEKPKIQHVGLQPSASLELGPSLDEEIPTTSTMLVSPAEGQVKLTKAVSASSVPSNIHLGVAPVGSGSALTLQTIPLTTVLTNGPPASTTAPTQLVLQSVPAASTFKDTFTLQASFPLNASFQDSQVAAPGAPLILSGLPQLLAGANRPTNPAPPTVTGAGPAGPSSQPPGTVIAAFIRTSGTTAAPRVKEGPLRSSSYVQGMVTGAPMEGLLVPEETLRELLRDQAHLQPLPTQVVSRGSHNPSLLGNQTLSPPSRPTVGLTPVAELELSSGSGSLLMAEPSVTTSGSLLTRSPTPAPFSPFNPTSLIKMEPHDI

Columns and labels:
Assay in all cases: DAPPL (digital affinity profiling via proximity ligation, sequencing)
Details in all cases: 10 mM Tris-HCl pH 7.5, 50 mM NaCl, 1 mM DTT, 4% glycerol, room temperature, 30 min; GST-TFs on glutathione beads, 16-mer random dsDNA library, 0.1% …; high values mean tight binding; double strand, one strand shown; scale: fold enrichment (6-mer frequency, TF over GST control)
FLI1 = biological target: T1, FLI1 (UniProt Q01543)
T1 sequence: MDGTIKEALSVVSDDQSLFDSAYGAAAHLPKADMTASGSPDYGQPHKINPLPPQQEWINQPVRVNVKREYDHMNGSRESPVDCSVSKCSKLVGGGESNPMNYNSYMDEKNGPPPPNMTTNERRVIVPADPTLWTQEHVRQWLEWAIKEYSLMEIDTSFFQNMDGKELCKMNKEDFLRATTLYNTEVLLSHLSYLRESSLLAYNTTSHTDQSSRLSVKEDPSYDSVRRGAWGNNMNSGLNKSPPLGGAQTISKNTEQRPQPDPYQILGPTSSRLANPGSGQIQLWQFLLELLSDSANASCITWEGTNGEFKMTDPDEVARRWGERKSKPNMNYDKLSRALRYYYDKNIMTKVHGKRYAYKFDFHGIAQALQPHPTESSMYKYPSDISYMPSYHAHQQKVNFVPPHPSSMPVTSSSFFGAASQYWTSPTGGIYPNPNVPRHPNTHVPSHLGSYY

EHF = biological target: T2, EHF (UniProt Q9NZC4)
T2 sequence: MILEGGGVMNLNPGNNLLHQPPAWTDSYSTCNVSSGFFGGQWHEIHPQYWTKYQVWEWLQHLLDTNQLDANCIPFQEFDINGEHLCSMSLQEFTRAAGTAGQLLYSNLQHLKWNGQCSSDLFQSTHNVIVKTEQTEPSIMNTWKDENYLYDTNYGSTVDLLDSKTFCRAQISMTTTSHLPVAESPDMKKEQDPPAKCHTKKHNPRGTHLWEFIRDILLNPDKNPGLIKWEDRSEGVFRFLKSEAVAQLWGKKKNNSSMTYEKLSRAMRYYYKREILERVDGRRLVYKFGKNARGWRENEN

SPIB = SPIB (UniProt Q01892)
ETV5 = ETV5 (UniProt P41161)
ETV3L = biological target: T3, ETV3L (UniProt Q6ZN32)
T3 sequence: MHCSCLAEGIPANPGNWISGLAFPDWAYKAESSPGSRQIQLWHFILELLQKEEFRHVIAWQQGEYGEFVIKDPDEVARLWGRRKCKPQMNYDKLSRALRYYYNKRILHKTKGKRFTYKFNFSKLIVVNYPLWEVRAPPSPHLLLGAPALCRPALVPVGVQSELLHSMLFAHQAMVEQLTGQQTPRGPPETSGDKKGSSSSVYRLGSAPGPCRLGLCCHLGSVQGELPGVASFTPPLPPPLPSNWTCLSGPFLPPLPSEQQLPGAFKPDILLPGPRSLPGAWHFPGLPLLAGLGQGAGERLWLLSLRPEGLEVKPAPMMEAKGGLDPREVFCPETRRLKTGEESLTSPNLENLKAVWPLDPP

ELF4 = ELF4 (UniProt Q99607)

GAATGA
binding signal (FLI1): 0.941 | binding signal (EHF): 0.99 | binding signal (SPIB): 0.898 | binding signal (ETV5): 0.85 | binding signal (ETV3L): 0.99

TTAGCC
binding signal (FLI1): 0.972 | binding signal (EHF): 1.03 | binding signal (ETV5): 0.932 | binding signal (ETV3L): 0.959

GATTCG
binding signal (FLI1): 0.99 | binding signal (EHF): 0.962 | binding signal (ETV5): 0.91

TATCCC
binding signal (FLI1): 1.63 | binding signal (EHF): 1.52 | binding signal (ETV5): 1.64

CCATGG
binding signal (FLI1): 1.08 | binding signal (EHF): 1.06 | binding signal (SPIB): 0.906 | binding signal (ETV5): 0.986

CCAGAA
binding signal (FLI1): 0.881 | binding signal (EHF): 0.977 | binding signal (SPIB): 0.95 | binding signal (ETV5): 0.988 | binding signal (ETV3L): 0.986

AGTTAA
binding signal (FLI1): 1.02 | binding signal (EHF): 1.08 | binding signal (ETV5): 1.1 | binding signal (ETV3L): 0.993

CCACAA
binding signal (FLI1): 1.2 | binding signal (EHF): 1.08 | binding signal (ETV5): 1.19

TTCTGT
binding signal (FLI1): 1.26 | binding signal (SPIB): 1.22 | binding signal (ETV5): 1.26 | binding signal (ETV3L): 1.42

ACACTA
binding signal (FLI1): 1.11 | binding signal (EHF): 1.15 | binding signal (ETV5): 1.14

AACCGA
binding signal (FLI1): 0.982 | binding signal (EHF): 0.954 | binding signal (ETV5): 0.953

CTCCAC
binding signal (FLI1): 1.56 | binding signal (ETV5): 1.42 | binding signal (ETV3L): 1.45

TGCCAC
binding signal (FLI1): 1.21 | binding signal (EHF): 1.23 | binding signal (ETV5): 1.14 | binding signal (ETV3L): 1.28

CGCACC
binding signal (FLI1): 0.988 | binding signal (EHF): 0.977 | binding signal (SPIB): 0.907 | binding signal (ETV5): 0.963 | binding signal (ETV3L): 0.947

AACAGA
binding signal (FLI1): 0.974 | binding signal (SPIB): 0.907 | binding signal (ETV5): 0.948 | binding signal (ETV3L): 0.969

AAAGGC
binding signal (FLI1): 0.946 | binding signal (EHF): 0.983 | binding signal (SPIB): 0.927 | binding signal (ETV5): 0.958 | binding signal (ETV3L): 0.967

CACAAG
binding signal (FLI1): 1.2 | binding signal (EHF): 1.14 | binding signal (ETV5): 1.13

TGTCCT
binding signal (FLI1): 1.37 | binding signal (EHF): 1.52 | binding signal (ETV5): 1.56 | binding signal (ETV3L): 1.58

ACCTGT
binding signal (FLI1): 0.964 | binding signal (EHF): 0.957 | binding signal (SPIB): 0.957 | binding signal (ETV5): 0.994 | binding signal (ETV3L): 0.96

GTTAGC
binding signal (FLI1): 0.933 | binding signal (EHF): 0.953 | binding signal (ETV5): 0.946 | binding signal (ETV3L): 0.871

TGGATC
binding signal (FLI1): 0.957 | binding signal (SPIB): 0.92 | binding signal (ETV5): 0.98 | binding signal (ETV3L): 1.12

CCCTCA
binding signal (FLI1): 1.28 | binding signal (SPIB): 1.25 | binding signal (ETV5): 1.18 | binding signal (ETV3L): 1.18

TACGGT
binding signal (FLI1): 1.01 | binding signal (EHF): 0.975 | binding signal (SPIB): 1.02 | binding signal (ETV5): 1.04 | binding signal (ETV3L): 0.981

CTAACT
binding signal (FLI1): 1.36 | binding signal (EHF): 1.25 | binding signal (ETV5): 1.34

TTTGAT
binding signal (FLI1): 1.37 | binding signal (EHF): 1.25 | binding signal (ETV5): 1.23 | binding signal (ETV3L): 1.28

GAATGC
binding signal (FLI1): 0.911 | binding signal (EHF): 0.96 | binding signal (SPIB): 0.952 | binding signal (ETV5): 0.914

CCCTCT
binding signal (FLI1): 1.31 | binding signal (SPIB): 1.56 | binding signal (ETV5): 1.33 | binding signal (ETV3L): 1.3

ACTCGG
binding signal (FLI1): 1.07 | binding signal (SPIB): 0.956 | binding signal (ETV5): 0.962 | binding signal (ETV3L): 0.968

TTTGTT
binding signal (FLI1): 1.26 | binding signal (ETV5): 1.25 | binding signal (ETV3L): 1.27

CGTACG
binding signal (FLI1): 1 | binding signal (EHF): 0.959 | binding signal (ETV5): 0.984

TAACGT
binding signal (FLI1): 0.991 | binding signal (SPIB): 0.966 | binding signal (ETV5): 0.932 | binding signal (ETV3L): 0.97

GAAGCC
binding signal (FLI1): 0.974 | binding signal (EHF): 0.974 | binding signal (SPIB): 0.992 | binding signal (ETV5): 1.07 | binding signal (ETV3L): 0.997

ATGCCC
binding signal (FLI1): 1.38 | binding signal (ETV5): 1.28 | binding signal (ETV3L): 1.26

TGTTGC
binding signal (ETV5): 1.35 | binding signal (ELF4): 1.34

ATTAAC
binding signal (ETV5): 1.27 | binding signal (ELF4): 1.3
